According to US12129265B2, “Therapeutic agents and uses thereof” (Ankh Life Sciences Limited, priority 2020, dated 2024):
At least one structure is not confirmed: it was looked up by name or label, or the drawing left a doubt.

Assays:
Assay in all cases: CellTiter-Glo in vitro cell proliferation assay, Example 8
Type in all cases: cell-based, Human
H1650 (EGFR mut) cells = details: NSCLC
Protocol: (§1) In this Example, in vitro cell proliferation assays were performed using: (1) Human Myeloma tumor cell lines; (2) Human Lymphoma tumor cell lines; (3) Solid Human tumor cell lines; and (4) Parental, Lenalidomide resistant and Bortezomib resistant Jeko-1 Mantle cell Lymphoma tumor cell lines. The compounds tested were three diharmaline compounds, namely the 518B562 (or simply 562), 560, and 561 compounds. In addition, a monoharmaline product designated as 518F014 was also tested. This monoharmaline product had the following structure:
(§2) Each proliferation assay was carried out as follows. The test cells were plated in growth media using a 384-well microtiter plate at 50 μL volume. The cells were incubated for 24 hours at 37° C. in a humidified incubator. After 24 hours of incubation, the test compounds were added to the test wells in DSMO solvent, at concentrations ranging from 0.0075-100 μM. Control wells received equal volumes of DSMO, without compound. Following drugging, the cells were incubated for 72 hours at 37° C. in a humidified incubator. After this exposure, 100 μL of a 1:1 mixture of sterile water and CellTiter-Glo® reagent (Promega) was added to each well. The plates were then incubated for 60 minutes at room temperature, followed by recording the luminescence value of each well using a luminometer as a measure of cell proliferation.

A498 cells = details: A498, RCC
Protocol: as §1, §2

ASPC-1 cells = details: ASPC-1, Pancreatic
Protocol: as §1, §2

A2780 cells = details: A2780, Ovarian
Protocol: as §1, §2

HCC70 cells = details: HCC70, TNBC
Protocol: as §1, §2

HEC-1a cells = details: Endometrial
Protocol: as §1, §2

H1975 (EGFR mut) cells = details: NSCLC
Protocol: as §1, §2

SiHA cells = details: Cervical - SC
Protocol: as §1, §2

MDA-MB-468 cells = details: MDA-MB-468, TNBC
Protocol: as §1, §2

Structure (SMILES): COc1ccc2c3c([nH]c2c1)C(CC(CC1=NCCc2c1[nH]c1cc(OC)ccc21)c1ccc(OC(C)=O)c(OC)c1)=NCC3 [compound 6]
- IC50 (H1650 (EGFR mut) cells): 100 µM
- IC50 (A498 cells): 100 µM
- IC50 (ASPC-1 cells): 100 µM
- IC50 (A2780 cells): 100 µM
- IC50 (HCC70 cells): 100 µM
- IC50 (HEC-1a cells): 100 µM
- IC50 (H1975 (EGFR mut) cells): 100 µM

Structure (SMILES): COc1ccc(C(CC2=NCCc3c2[nH]c2cc(OC)ccc32)CC2=NCCc3c2[nH]c2cc(OC)ccc32)c(O)c1 [compound 8]
- IC50 (SiHA cells): 100 µM

Structure (SMILES): COc1ccc2c3c([nH]c2c1)C(CC(CC1=NCCc2c1[nH]c1cc(OC)ccc21)c1cc(Cl)c(O)c(OC)c1)=NCC3 [compound 9]
- IC50 (A498 cells): 100 µM
- IC50 (SiHA cells): 100 µM

Structure (SMILES): COc1ccc2c3c([nH]c2c1)C(CC(CC1=NCCc2c1[nH]c1cc(OC)ccc21)c1ccc(OC)c(Oc2ccccc2)c1)=NCC3 [compound 10]
- IC50 (SiHA cells): 100 µM

Structure (SMILES): COc1ccc2c3c([nH]c2c1)C(CC(CC1=NCCc2c1[nH]c1cc(OC)ccc21)c1ccc(OC)c(O)c1Br)=NCC3 [compound 13]
- IC50 (SiHA cells): 100 µM

Structure (SMILES): COc1ccc2c3c([nH]c2c1)C(CC(CC1=NCCc2c1[nH]c1cc(OC)ccc21)c1cccc(-c2ccccc2)c1)=NCC3 [compound 18]
- IC50 (SiHA cells): 100 µM

Structure (SMILES): C=C(C)C1CC=C(C(CC2=NCCc3c2[nH]c2cc(OC)ccc32)CC2=NCCc3c2[nH]c2cc(OC)ccc32)CC1 (centres unmarked) [compound 28]
- IC50 (A2780 cells): 100 µM
- IC50 (H1975 (EGFR mut) cells): 100 µM

Structure (SMILES): COc1ccc2c3c([nH]c2c1)C(CC(CC1=NCCc2c1[nH]c1cc(OC)ccc21)c1ccc(C(C)C)cc1)=NCC3 [compound 29]
- IC50 (MDA-MB-468 cells): 100 µM
- IC50 (HEC-1a cells): 100 µM
